Test results: patent publication US20110118313A1, “IDENTIFICATION OF A MOLECULAR SIGNATURE FOR ANTIPSYCHOTICS AND SERMS” (priority 2008, published 2011)
At least one structure is not confirmed: it was looked up by name or label, or the drawing left a doubt.

Assays:
[1] = test system: mouse striatum; settings: cited from earlier work
[2] = test system: ARPE-19 cell line; experiment: Gene expression profiling (U133A2.0 microarrays) of drug-treated ARPE-19 cells; antipsychotic signature of lipid homeostasis genes; format: cell-based, human; settings: ARPE-19, 10 μM, 24 hrs
Description: The retinal pigment epithelia cell line, ARPE-19/HPV-16, was chosen to establish a database of drug profiles because it is from non-cancerous human origin, with a normal karyotype, and can easily be grown as monolayer in 96-well plates. H4 is a hypertriploid cell line from glioblastoma origin, which was used only for independent replication. Cell lines were propagated according to supplier's specifications (ATCC Manassas, Va.). Compounds were obtained from Sigma (St. Louis, Mo.) or Vanda Pharmaceuticals (Rockville, Md.). Cells were aliquoted to 96-well plates (˜2×10e5 cells/well) and incubated for 24 hrs prior to providing fresh media with a drug, or the drug vehicle (water, dimethyl sulfoxide, ethanol, methanol, or phosphate-buffered saline solution). Drugs were diluted 1000 fold in buffered Advanced D-MEM/F-12 culture medium (Invitrogen, Carlsbad, Calif.) containing non-essential amino acids and 110 mg/L sodium pyruvate. In these conditions, no significant changes of pH were expected, which was confirmed by the monitoring of the pH indicator present in the medium. […]
Cells were harvested 24 hrs after treatment and RNA extracted using the RNeasy 96 protocol (Qiagen, Valencia, Calif.). […] A total of 708 microarrays were analysed including 74 for the 18 antipsychotics, 499 for the other 448 compounds, and 135 for vehicle controls. […]

CN1CCN(C2=Nc3cc(Cl)ccc3Nc3ccccc32)CC1 [clozapine]
differential expression of genes involved in lipid metabolism [1]: differential expression of genes involved in lipid metabolism | effect on lipid homeostasis (gene expression signature) [2]: share a common gene expression signature
